Reference: publication PMC5874067

The chains behind the UniProt entries cited, without tags or fusion partners. Where a name states a change or a piece, a line headed by the entry shows the natural chain unless it says otherwise.
UniProt Q8NFJ9: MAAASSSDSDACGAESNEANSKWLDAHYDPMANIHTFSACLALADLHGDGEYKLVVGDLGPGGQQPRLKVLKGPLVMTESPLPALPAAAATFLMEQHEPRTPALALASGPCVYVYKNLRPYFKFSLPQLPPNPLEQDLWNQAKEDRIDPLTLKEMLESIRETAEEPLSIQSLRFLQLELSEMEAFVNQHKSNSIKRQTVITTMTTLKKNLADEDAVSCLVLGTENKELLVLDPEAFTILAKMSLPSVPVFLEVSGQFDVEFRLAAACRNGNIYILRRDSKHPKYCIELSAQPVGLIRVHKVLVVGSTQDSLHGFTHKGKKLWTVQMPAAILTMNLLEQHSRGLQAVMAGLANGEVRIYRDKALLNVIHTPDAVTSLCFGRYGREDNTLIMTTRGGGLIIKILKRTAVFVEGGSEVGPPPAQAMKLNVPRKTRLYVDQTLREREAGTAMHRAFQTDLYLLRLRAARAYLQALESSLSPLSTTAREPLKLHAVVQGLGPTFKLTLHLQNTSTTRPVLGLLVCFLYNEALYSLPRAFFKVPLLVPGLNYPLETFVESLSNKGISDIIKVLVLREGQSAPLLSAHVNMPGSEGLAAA

Molecular target: T1, EGFP-BBS9 (human) (UniProt Q3SYG4)
T1 sequence: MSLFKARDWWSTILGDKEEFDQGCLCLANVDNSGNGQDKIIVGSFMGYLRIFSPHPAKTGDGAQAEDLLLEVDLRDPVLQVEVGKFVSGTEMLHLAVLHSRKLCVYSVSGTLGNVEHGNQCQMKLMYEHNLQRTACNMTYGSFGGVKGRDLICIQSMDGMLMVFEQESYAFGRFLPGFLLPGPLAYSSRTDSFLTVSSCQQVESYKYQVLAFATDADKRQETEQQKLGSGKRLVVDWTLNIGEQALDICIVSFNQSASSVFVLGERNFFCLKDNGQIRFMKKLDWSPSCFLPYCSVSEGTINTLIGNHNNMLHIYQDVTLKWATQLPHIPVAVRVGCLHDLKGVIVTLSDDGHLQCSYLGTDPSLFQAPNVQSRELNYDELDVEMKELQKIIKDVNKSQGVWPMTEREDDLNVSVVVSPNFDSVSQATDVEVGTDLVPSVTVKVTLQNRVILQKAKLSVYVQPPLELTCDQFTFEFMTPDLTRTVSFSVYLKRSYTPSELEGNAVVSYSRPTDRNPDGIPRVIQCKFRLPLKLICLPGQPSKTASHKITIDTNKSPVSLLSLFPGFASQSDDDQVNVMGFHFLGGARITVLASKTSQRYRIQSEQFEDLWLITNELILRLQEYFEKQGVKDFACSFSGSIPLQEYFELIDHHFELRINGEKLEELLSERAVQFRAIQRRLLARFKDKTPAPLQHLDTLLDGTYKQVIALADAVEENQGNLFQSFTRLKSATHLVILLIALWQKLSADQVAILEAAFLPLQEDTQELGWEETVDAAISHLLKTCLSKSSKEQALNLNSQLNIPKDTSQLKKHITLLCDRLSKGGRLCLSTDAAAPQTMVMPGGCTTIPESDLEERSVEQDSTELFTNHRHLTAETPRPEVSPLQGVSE
Experiment: co-IP; VIP assay: lysates of HEK293T cells co-expressing an EGFP-fused and an mChe- or tRFP-fused protein (HMDEKN buffer: 10 mM HEPES pH 7.4, 5 mM MgSO4, 1 mM DTT, 0.5 mM EDTA, 25 mM KCl, 0.5% NP-40); EGFP fusion precipitated with GST-anti-GFP nanobody on glutathione-Sepharose beads; beads read by fluorescence microscopy and, for some pairs, by immunoblotting

mChe-fused BBS1(∆α) (from UniProt Q8NFJ9)
binding: binds

Results are given in words; binding and its absence hold for the method and conditions named. In cells and extracts the contact can be indirect. A result given as binding can be weak or reduced; the word gives no strength. Sequences can lack the tags named with a protein.
